PubChem BioAssay AID504793 – Drosophila RNAi Screening Center | 2011

Test: 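Knock-downs allowing continued mitosis even though DNA is damaged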 (primary screen)
System: Drosophila S2R+ cells
Reagent: long dsRNA against Drosophila genes, about 0.25 µg dsRNA per well
Duration: 4 days of dsRNA, then 4 hours of drug before read-out
Conditions: doxorubicin 0.5 µM for 4 hours to cause double-strand breaks, in cells also given a low, harmless dose of dsRNA against nbs to sensitise the assay
Read-out: 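Mitotic index as the number of phospho-histone H3-positive cells in each well following doxorubicin, given as raw counts without normalisation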
Reading the numbers: mitotic cells: higher = more cells in mitosis, weaker G2 arrest
Call rule: 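Genes are called active only when high mitotic counts were reproduced with independent dsRNAs and mitosis was checked for delay without damage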
Calls: active = confirmed in follow-up tests; inactive = not confirmed
In all, the deposit lists about 23,000 reagents; this is an unselected part of those that have a named target and a result. In the full data, 62 (0.27%) are marked active. 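Calls come from follow-up tests whose scores are not deposited, so confirmed genes may have low counts here; counts are not normalised per plate.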 Raw values vary from plate to plate and are shown uncorrected. A plus sign joins genes that one reagent is predicted to hit.

| gene | amplicon | mitotic cells, replicate 1 | mitotic cells, replicate 2 | Outcome |
| --- | --- | --- | --- | --- |
| klar | DRSC08718 | 4 | – | inactive |
| klar | DRSC22393 | 7 | – | inactive |
| CG14238 | DRSC14732 | 9 | – | inactive |
| CG14238 | DRSC29545 | 4 | – | inactive |
| 128up | DRSC05027 | 9 | – | inactive |
| 128up | DRSC24366 | 1 | – | inactive |
| PGRP-LA | DRSC10327 | 5 | – | inactive |
| PGRP-LA | DRSC10414 | 5 | – | inactive |
| ort | DRSC16240 | 8 | – | inactive |
| CG8584 | DRSC07217 | 5 | – | inactive |
| Nop60B | DRSC04627 | 3 | – | inactive |
| CG9919 | DRSC20219 | 6 | – | inactive |
| CG12099 | DRSC08253 | 3 | – | inactive |
| Vps29 | DRSC00666 | 4 | – | inactive |
| CG15740 | DRSC23079 | 4 | – | inactive |
| CG15740 | DRSC28880 | 8 | – | inactive |
| CG9447 | DRSC05008 | 10 | – | inactive |
| Ir56a | DRSC05776 | 5 | – | inactive |
| Ir56a | DRSC28590 | 5 | – | inactive |
| Nnf1a | DRSC06394 | 8 | – | inactive |
| eIF4E5 | DRSC10975 | 4 | – | inactive |
| eIF4E5 | DRSC25877 | 8 | – | inactive |
| CG34458 | DRSC06925 | 1 | – | inactive |
| glu | DRSC03539 | 13 | – | inactive |
| glu | DRSC26151 | 8 | – | inactive |
| Kul | DRSC15404 | 9 | – | inactive |
| Kul | DRSC25888 | 6 | – | inactive |
| CG33475 | DRSC22943 | 6 | – | inactive |
| Drep2 | DRSC07528 | 12 | – | inactive |
| Drep2 | DRSC25612 | 2 | – | inactive |
| CG7714 | DRSC16300 | 7 | – | inactive |
| CG7714 | DRSC24753 | 5 | – | inactive |
| Vps13B | DRSC15060 | 7 | – | inactive |
| Ate1 | DRSC05925 | 9 | – | inactive |
| Ate1 | DRSC24725 | 7 | – | inactive |
| Bacc | DRSC27262 | 4 | – | inactive |
| coil | DRSC07242 | 10 | – | inactive |
| coil | DRSC26055 | 1 | – | inactive |
| CG18536 | DRSC06763 | 2 | – | inactive |
| CR12628 + Mgstl | DRSC03702 | 4 | 16 | inactive |
| CR12628 + Mgstl | DRSC20568 | 4 | – | inactive |
| CG14195 | DRSC19550 | 5 | – | inactive |
| Spag1 | DRSC15331 | 18 | – | inactive |
| aft | DRSC07576 | 9 | – | inactive |
| CAH5 | DRSC15372 | 4 | – | inactive |
| CalpC | DRSC19873 | 8 | – | inactive |
| CG14326 | DRSC14805 | 11 | – | inactive |
| CG14326 | DRSC28069 | 2 | – | inactive |

Entries above whose target name begins with G or g (2):
| gene | amplicon | mitotic cells, replicate 1 | mitotic cells, replicate 2 | Outcome |
| --- | --- | --- | --- | --- |
| glu | DRSC03539 | 13 | – | inactive |
| glu | DRSC26151 | 8 | – | inactive |

Further records follow.
| gene | amplicon | mitotic cells, replicate 1 | mitotic cells, replicate 2 | Outcome |
| --- | --- | --- | --- | --- |
| hpRNA:CR32207 | DRSC09616 | 4 | – | inactive |
| CG4789 | DRSC19918 | 15 | – | inactive |
| CG5902 | DRSC15912 | 7 | – | inactive |
| ACC | DRSC06059 | 8 | – | inactive |
| ACC | DRSC07249 | 7 | – | inactive |
| Iswi | DRSC07446 | 9 | – | inactive |
| Iswi | DRSC26047 | 11 | – | inactive |
| CG14265 | DRSC18591 | 16 | – | inactive |
| CG14265 | DRSC29212 | 6 | – | inactive |
| CG34428 | DRSC10119 | 1 | – | inactive |
| mthl6 | DRSC10234 | 3 | – | inactive |
| unc-104 | DRSC07710 | 5 | – | inactive |
| CG10177 | DRSC14201 | 6 | – | inactive |
| CG10177 | DRSC27888 | 8 | – | inactive |
| ZnT35C | DRSC01959 | 4 | – | inactive |
| CG9691 | DRSC18441 | 12 | – | inactive |
| CG10598 | DRSC19358 | 16 | – | inactive |
| CG10598 | DRSC25200 | 7 | – | inactive |
| CG31267 | DRSC15748 | 9 | – | inactive |
| Dr | DRSC17002 | 10 | 10 | inactive |
| Dr | DRSC22708 | 33 | – | inactive |
| Trxr2 | DRSC11900 | 4 | – | inactive |
| Trxr2 | DRSC25519 | 6 | – | inactive |
| TrpRS | DRSC14097 | 3 | – | inactive |
| unc-45 | DRSC15449 | 4 | – | inactive |
| hpo | DRSC06065 | 6 | – | inactive |
| drpr | DRSC08143 | 7 | – | inactive |
| drpr | DRSC08525 | 6 | – | inactive |
| Lapsyn | DRSC04249 | 2 | – | inactive |
| Osi8 | DRSC12277 | 5 | – | inactive |
| Osi8 | DRSC27462 | 12 | – | inactive |
| CG16826 | DRSC02527 | 4 | – | inactive |
| CG43693 | DRSC09086 | 2 | – | inactive |
| CG43693 | DRSC10625 | 4 | – | inactive |
| CG11076 | DRSC17197 | 12 | – | inactive |
| CG3408 | DRSC10360 | 5 | – | inactive |
| CG7139 | DRSC11611 | 5 | – | inactive |
| CG7139 | DRSC24579 | 6 | – | inactive |
| CG12355 | DRSC09381 | 6 | – | inactive |
| CG12355 | DRSC09883 | 7 | – | inactive |
| CG5623 | DRSC15848 | 6 | – | inactive |
| CG8100 | DRSC10961 | 5 | – | inactive |
| Bdp1 | DRSC03192 | 9 | – | inactive |
| Bdp1 | DRSC28804 | 5 | – | inactive |
| acj6 | DRSC20304 | 7 | – | inactive |
| acj6 | DRSC29003 | 2 | – | inactive |
| chic | DRSC03507 | 4 | – | inactive |
| thoc5 | DRSC04327 | 7 | – | inactive |
| ND-51L2 | DRSC07080 | 14 | – | inactive |
| CG11686 | DRSC14350 | 8 | – | inactive |
| RpS27 | DRSC14244 | 20 | – | inactive |
| RpS27 | DRSC29946 | 10 | – | inactive |
| ppk19 | DRSC15321 | 16 | – | inactive |
| CkIIalpha-i1 | DRSC11115 | 4 | – | inactive |
| CG4820 | DRSC15654 | 6 | – | inactive |
| LanB1 | DRSC03360 | 4 | – | inactive |
| LanB1 | DRSC27259 | 8 | – | inactive |
| bond | DRSC16135 | 5 | – | inactive |
| bond | DRSC23724 | 11 | – | inactive |
| CG12994 | DRSC19514 | 11 | – | inactive |
| tim | DRSC00841 | 10 | – | inactive |
| CG12746 | DRSC12218 | 5 | – | inactive |
